Measured values from PMC7713045.
Results are given in words; binding and its absence hold for the method and conditions named. Some entries that bind do so weakly or less than the wild type.

Target: wild type T. thermophilus GroEL expressed in E. coli cells (T. thermophilus) (UniProt Q5SLM2)
Assay: SEC; data not shown; distribution compared with that of Met-less GroEL on Sephacryl S-400

binding: binds
B1: wild type T. thermophilus GroEL expressed in E. coli cells (protein, UniProt Q5SLM2 1-543)
chain: MAKILVFDEAARRALERGVNAVANAVKVTLGPRGRNVVLEKKFGSPTITKDGVTVAKEVELEDHLENIGAQLLKEVASKTNDVAGDGTTTATVLAQAIVREGLKNVAAGANPLALKRGIEKAVEAAVEKIKALAIPVEDRKAIEEVATISANDPEVGKLIADAMEKVGKEGIITVEESKSLETELKFVEGYQFDKGYISPYFVTNPETMEAVLEDAFILIVEKKVSNVRELLPILEQVAQTGKPLLIIAEDVEGEALATLVVNKLRGTLSVAAVKAPGFGDRRKEMLKDIAAVTGGTVISEELGFKLENATLSMLGRAERVRITKDETTIVGGKGKKEDIEARINGIKKELETTDSEYAREKLQERLAKLAGGVAVIRVGAATETELKEKKHRFEDALNATRAAVEEGIVPGGGVTLLRAISAVEELIKKLEGDEATGAKIVRRALEEPARQIAENAGYEGSVIVQQILAETKNPRYGFNAATGEFVDMVEAGIVDPAKVTRSALQNAASIGALILTTEAVVAEKPEKKESTPASAGAGDMDF
